Laboratory results as given in publication PMC5678113, “Substrate Specificity and Allosteric Regulation of a D-Lactate Dehydrogenase from a Unicellular Cyanobacterium are Altered by an Amino Acid Substitution” (Scientific Reports, 2017).

Target: T1, SyDdh (GST-SyDdh) (Synechocystis sp. PCC 6803, UniProt P74586)
T1 construct: gene ddh; Full ddh ORF, GST-tagged (tag kept, pGEX5X-1), expressed in E. coli DH5alpha, glutathione-Sepharose purified
T1 sequence (P74586 1-333): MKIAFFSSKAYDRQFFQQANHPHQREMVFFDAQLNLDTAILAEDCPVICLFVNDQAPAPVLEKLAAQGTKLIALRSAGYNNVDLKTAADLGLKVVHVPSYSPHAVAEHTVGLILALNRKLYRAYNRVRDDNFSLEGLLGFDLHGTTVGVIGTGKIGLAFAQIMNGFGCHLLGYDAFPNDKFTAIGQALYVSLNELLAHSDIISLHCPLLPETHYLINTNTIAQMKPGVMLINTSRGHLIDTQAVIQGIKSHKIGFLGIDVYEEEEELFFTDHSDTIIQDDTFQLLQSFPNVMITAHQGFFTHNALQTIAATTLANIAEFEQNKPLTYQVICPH
Test: NADH oxidation followed at A340
Type: biochemical
Conditions: read-out: % activity at 2.5 mM

activity at 2500 µM: 116%
Compound: O=C(O)CC(O)(CC(=O)O)C(=O)O [citrate]
